At least one structure is not confirmed: it was looked up by name or label, or the drawing left a doubt.
System: U937 cells
Assay: IL-10 mRNA induction by cAMP-raising agents with or without GMCSF in U937 cells (Example 8, FIG. 12)
Type: cell-based, human
Conditions: Forskolin 50×10^-6 Molar, GMCSF 5 ng/ml, 48 hours

C=C[C@@]1(C)CC(=O)[C@]2(O)[C@@]3(C)[C@@H](O)CCC(C)(C)[C@@H]3[C@H](O)[C@H](OC(C)=O)[C@@]2(C)O1 [forskolin, 7β-Acetoxy-8,13-epoxy-1α,6β,9α-trihydroxylabd-14-en-11-one]
stimulation of IL-10 expression in the presence of GMCSF: increased strikingly
